PubChem BioAssay AID686937 – Drosophila RNAi Screening Center – 2013
Purpose: 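Knock-downs that reduce output of a secreted reporter enzyme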 (primary screen). Cells: Drosophila S2 cells expressing secreted horseradish peroxidase. Reagent: long dsRNA against Drosophila genes. Timing: about 5.5 days (5 days dsRNA, then 12 h reporter induction). Conditions: reporter expression induced after 5 days of dsRNA, read 12 h later; inducer not stated. Detection: 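Chemiluminescent measurement of peroxidase in the medium 12 h after reporter induction, following 5 days of dsRNA, given as a z-score per plate; higher means more secretion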. Direction: z-score: higher = more reporter secreted into medium.
The deposit covers about 23,000 reagents; shown is a random part of those that have a named target and a result. 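Reduced-secretion tags in replicate 1 do not always agree with the z-scores; no criterion for assigning the tags was given.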 A plus sign joins genes that one reagent is predicted to hit. Further read-outs or replicates are left out here. Reagent sequences are not shown. The record does not give: the amount of reagent.

CtsB [DRSC19361] — z-score, replicate 1 = 0.15
CG32719 [DRSC17525] — z-score, replicate 1 = -0.35
Sfp38D [DRSC01810] — z-score, replicate 1 = -0.27
CG8927 [DRSC16458] — z-score, replicate 1 = 0.41
Gr64b + Gr64c [DRSC08444] — z-score, replicate 1 = 0.72
Gr64b + Gr64c [DRSC08445] — z-score, replicate 1 = 0.53
wcy [DRSC20132] — z-score, replicate 1 = 0.5
Alp8 [DRSC04353] — z-score, replicate 1 = 0.24
CG43901 [DRSC19397] — z-score, replicate 1 = 0.04
CG43901 [DRSC19652] — z-score, replicate 1 = -3.35
CG43901 [DRSC19653] — z-score, replicate 1 = 0.12; phenotype, replicate 1 = reduced secretion
CG43901 [DRSC22791] — z-score, replicate 1 = 0.03
Sqor [DRSC08453] — z-score, replicate 1 = 0.68
CG4793 [DRSC01966] — z-score, replicate 1 = -0.17
Rcd1 [DRSC07116] — z-score, replicate 1 = -0.05
Tina-1 [DRSC04317] — z-score, replicate 1 = 0.45
karr [DRSC20681] — z-score, replicate 1 = 0.49
Nmd3 [DRSC18687] — z-score, replicate 1 = 0.38
Nmd3 [DRSC22834] — z-score, replicate 1 = 0.56

3 entries from above, sorted by “z-score, replicate 1”, high to low:
Gr64b + Gr64c [DRSC08444] — z-score, replicate 1 = 0.72
Gr64b + Gr64c [DRSC08445] — z-score, replicate 1 = 0.53
wcy [DRSC20132] — z-score, replicate 1 = 0.5

Next reagents follow:
Ser [DRSC16856] — z-score, replicate 1 = 0.34
Cpr49Ad [DRSC07284] — z-score, replicate 1 = 0.38
Inos [DRSC07655] — z-score, replicate 1 = 0.24
Gbeta13F [DRSC20247] — z-score, replicate 1 = 0.37
Gapdh2 [DRSC20246] — z-score, replicate 1 = -0.23
CG17186 [DRSC15180] — z-score, replicate 1 = 0.27
CG16787 [DRSC04282] — z-score, replicate 1 = -0.13
M7BP [DRSC05053] — z-score, replicate 1 = 0.23
M7BP [DRSC05054] — z-score, replicate 1 = 0.98
M7BP [DRSC05932] — z-score, replicate 1 = 0.35
M7BP [DRSC06701] — z-score, replicate 1 = 0.12
M7BP [DRSC06816] — z-score, replicate 1 = 0.32
